Screen size: about 330,000 compounds; about 7,700 (2.3%) were called active. This list was built around the results that the source calls inconclusive (neither active nor inactive); the mix of calls is not that of the screen. The call rests on the fitted dose curve; in most records, active means well fitted inhibition curve with a large enough effect; inconclusive means small, poorly fitted or top-dose-only effect, or effect the other way; inactive means flat fitted curve, though single readings scatter. Where the call is inconclusive, the potency comes from a doubtful curve fit.
Experiment: qHTS screen for small molecules that inhibit ELG1-dependent DNA repair in human embryonic kidney (HEK293T) cells expressing luciferase-tagged ELG1; further: nearly all actives have a fitted effect of over 55% in size
Details: HEK293T ELG1-luciferase reporter, luminescence, 16 h, DNA damage induced by 5-fluorouridine; series mostly up to 46.1 µM
Method in brief: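 Reporter activity after DNA damage by 5-fluorouridine is monitored. Compound-treated cells incubate 16 hr at 37 °C, then ONE-Glo is added for 30 min before luminescence reading.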
Potency means the concentration at half of the fitted maximal effect.

| SMILES | Potency |
| --- | --- |
| Cc1cc(C(=O)CN2C(=O)NC(c3ccccc3)(c3ccccc3)C2=O)c(C)n1Cc1ccco1 | inactive |
| O=C(Nc1nccs1)C(c1ccccc1)N1CCCC1 (stereo not given) | inactive |
| CC(=O)Nc1ccc(NC(=O)N2CCCCC2)cc1 | inconclusive: 20.6 µM [activator, partial curve, poor fit] |
| S=c1nc(-c2cccc(Cl)c2)[nH][nH]1 | inconclusive: 29.1 µM [activator, partial curve, poor fit] |
| COc1ccccc1NC(=O)C(C)N(C)CC(=O)Nc1cccc2ccccc12 (stereo not given) | inconclusive: 25.9 µM [inhibitor, single point] |
| O=C(Nc1nnc(C(F)(F)F)s1)c1c(F)cccc1F | inactive |
| CC(=O)Nc1ccc(S(=O)(=O)N/N=C/c2ccc(C)s2)cc1 | inconclusive: 13 µM [activator, partial curve] |
| CCOC(=O)C1CCN(C(=O)COC(=O)c2ccc3[nH]c4c(c3c2)CCCC4)CC1 | inconclusive: 5.17 µM [inhibitor, partial curve, poor fit] |
| COc1ccccc1N1CCN(c2ccc3ccccc3n2)CC1 | inconclusive: 2.06 µM [activator, full curve] |
| COC(=O)c1[nH]c2ccccc2c1NC(=O)CN1CCN(Cc2ccc3c(c2)OCO3)CC1 | active: 4.61 µM |
| COc1ccc(S(=O)(=O)Nc2ccc(N3CCOCC3)cc2)cc1[N+](=O)[O-] | inconclusive: 23.1 µM [inhibitor, partial curve, poor fit] |
| O=c1[nH]c(/C=C\c2ccccc2F)nc(O)c1[N+](=O)[O-] | inconclusive: 31.6 µM [activator, single point] |
| Cc1ccc(-c2nc(N)sc2C)cc1 | inconclusive: 20.6 µM [activator, single point] |
| CC(C)c1[nH]nc2c1C(c1cccs1)C(C#N)=C(N)O2 (stereo not given) | inactive |
| O=C(N/N=C/c1ccc([N+](=O)[O-])s1)c1ccncc1 | inconclusive: 4.61 µM [inhibitor, full curve] |
| CC(C)c1ccc(/C=C/C(=O)Nc2nncs2)cc1 | inconclusive: 0.92 µM [activator, full curve] |
| COc1ccc(CCNC(=O)CCCc2nnc3n(C)c(=O)c4sccc4n23)cc1OC | inactive |
| CC1CCCCN1S(=O)(=O)c1cnc(Cl)c(Br)c1 (stereo not given) | inconclusive: 14.6 µM [inhibitor, partial curve, poor fit] |
| COc1cc(SC)ccc1C(=O)OCc1nc2ccsc2c(=O)[nH]1 | inconclusive: 20.6 µM [activator, single point] |
| CC(C)NCC(=O)NC12CC3CC(CC(C3)C1)C2 | inconclusive: 23.1 µM [activator, partial curve, poor fit] |
| COCCCNc1oc(-c2ccccc2OC)nc1C#N | inconclusive: 18.4 µM [inhibitor, single point] |
| CC(C)(C)c1csc(NC(=O)Cc2ccc(S(=O)(=O)N3CCOCC3)s2)n1 | inactive |
| CCC(C)c1ccc(C2C3=C(Nc4nc(N)[nH]c(=O)c42)c2ccccc2C3=O)cc1 (stereo not given) | inactive |
| Cc1nn(-c2ccc(N3CCCCC3)nn2)c(C)c1CCC(=O)Nc1ccc(F)c(F)c1 | inconclusive: 29.1 µM [inhibitor, single point] |

| SMILES | Potency |
| --- | --- |
| COc1ccc(C(C)=O)cc1COC(=O)c1cnc(C)cn1 | inactive |
| COC(=O)[C@@H]1[C@@H](C#N)C2(c3ccccc3-c3ccccc32)N(c2ccc(Cl)cc2)N1C#N | inactive |
| COc1ccc(OCCN2C(=O)c3cccc(N)c3C2=O)cc1 | inconclusive: 20.6 µM [activator, partial curve] |
| COc1ccc(NC(=O)CSc2ccccn2)cc1 | inconclusive: 16.4 µM [activator, partial curve] |
| CN(C)C(CNS(=O)(=O)c1ccc(Cl)cc1)c1cccnc1 (stereo not given) | inconclusive: 9.2 µM [activator, partial curve, poor fit] |
| CCc1nc2ccccc2nc1N1CCN(S(=O)(=O)c2c(C)cc(Cl)cc2C)CC1 | inconclusive: 10.3 µM [inhibitor, partial curve, poor fit] |
| COc1ccccc1NC(=O)C(=O)c1cn(CC(=O)N2CCOCC2)c2ccccc12 | inconclusive: 11.6 µM [activator, partial curve] |
| Oc1cccc(Nc2ncnc3c2oc2ccccc23)c1 | inconclusive: 6.51 µM [activator, single point] |
| COc1cccc(C(C)NC(=O)c2c(F)cccc2Cl)c1 (stereo not given) | inactive |
| CCN(CC)C(=O)CSc1ncnc2c(-c3cccs3)nsc12 | inconclusive: 10.3 µM [activator, partial curve, poor fit] |
| O=C(NC1CCCC1)c1cc(COc2ccc3ncccc3c2)on1 | active: 2.31 µM |
| CNc1sc(C(=O)c2cccs2)c(N)c1-c1nc2ccccc2s1 | inconclusive: 4.11 µM [activator, full curve] |
| O=C(O)CCC(=O)c1ccc(-c2ccccc2)cc1 | inconclusive: 25.9 µM [activator, single point] |
| O=C(NNC(=O)c1ccccc1Cl)c1ccc2c(c1)OCCO2 | inconclusive: 9.2 µM [activator, partial curve] |
| CCOC(=O)c1ccc(NC=C2C(=O)OC3(CCCCC3)OC2=O)cc1 | inactive |
| COc1ccc(OC)c(/C=C/C(=O)NCCc2nc3ccccc3[nH]2)c1 | inconclusive: 32.6 µM [inhibitor, single point] |
| CCNC(=O)NC(=O)C(C)OC(=O)C(C)(C)Oc1ccc(Cl)cc1 (stereo not given) | inactive |
| Cc1oc2c(CN3CCOCC3)c(O)ccc2c(=O)c1-c1ccc(Cl)cc1 | inconclusive: 7.3 µM [activator, partial curve] |
| O=C(Nc1cccc(-c2cccc(Cl)c2)c1)C1CCN(Cc2ccc(CO)o2)CC1 | inactive |
| Oc1ccccc1/C=N/N1CCN(c2ccccn2)CC1 | inconclusive: 16.4 µM [activator, partial curve] |
| CCOCCCNC(=S)N1CCN(c2nc(-c3ccccc3)cs2)CC1 | inconclusive: 22.4 µM [inhibitor, partial curve, poor fit] |
| CC(C)CN1C(=O)c2ccc(C(=O)Nc3ccccc3C(=O)O)cc2C1=O | inconclusive: 25.9 µM [activator, single point] |
| CC(=O)Nc1ccccc1-c1nc2ccc(C(=O)N3CCN(c4cc(C)ccc4C)CC3)cc2[nH]c1=O | inconclusive: 23.1 µM [inhibitor, partial curve] |
| O=C(NCCS(=O)(=O)N1CCN(c2ccccc2F)CC1)c1cccs1 | inactive |

Grouped by structure, those above containing four or more nitrogen atoms

| SMILES | Potency |
| --- | --- |
| COC(=O)c1[nH]c2ccccc2c1NC(=O)CN1CCN(Cc2ccc3c(c2)OCO3)CC1 | active: 4.61 µM |
| CC(C)c1[nH]nc2c1C(c1cccs1)C(C#N)=C(N)O2 (stereo not given) | inactive |
| O=C(N/N=C/c1ccc([N+](=O)[O-])s1)c1ccncc1 | inconclusive: 4.61 µM [inhibitor, full curve] |
| COc1ccc(CCNC(=O)CCCc2nnc3n(C)c(=O)c4sccc4n23)cc1OC | inactive |
| CCC(C)c1ccc(C2C3=C(Nc4nc(N)[nH]c(=O)c42)c2ccccc2C3=O)cc1 (stereo not given) | inactive |
| Cc1nn(-c2ccc(N3CCCCC3)nn2)c(C)c1CCC(=O)Nc1ccc(F)c(F)c1 | inconclusive: 29.1 µM [inhibitor, single point] |
| COC(=O)[C@@H]1[C@@H](C#N)C2(c3ccccc3-c3ccccc32)N(c2ccc(Cl)cc2)N1C#N | inactive |
| CCc1nc2ccccc2nc1N1CCN(S(=O)(=O)c2c(C)cc(Cl)cc2C)CC1 | inconclusive: 10.3 µM [inhibitor, partial curve, poor fit] |
| CCN(CC)C(=O)CSc1ncnc2c(-c3cccs3)nsc12 | inconclusive: 10.3 µM [activator, partial curve, poor fit] |
| Oc1ccccc1/C=N/N1CCN(c2ccccn2)CC1 | inconclusive: 16.4 µM [activator, partial curve] |
| CCOCCCNC(=S)N1CCN(c2nc(-c3ccccc3)cs2)CC1 | inconclusive: 22.4 µM [inhibitor, partial curve, poor fit] |
| CC(=O)Nc1ccccc1-c1nc2ccc(C(=O)N3CCN(c4cc(C)ccc4C)CC3)cc2[nH]c1=O | inconclusive: 23.1 µM [inhibitor, partial curve] |

Reprinted at random: 2 entries already listed.

| SMILES | Potency |
| --- | --- |
| COc1ccc(OCCN2C(=O)c3cccc(N)c3C2=O)cc1 | inconclusive: 20.6 µM [activator, partial curve] |
| Oc1cccc(Nc2ncnc3c2oc2ccccc23)c1 | inconclusive: 6.51 µM [activator, single point] |

The listing continues:

| SMILES | Potency |
| --- | --- |
| C/C(=N\NC(=O)c1ccc(CN2CCc3ccccc3C2)cc1)c1ccccc1O | active: 3.26 µM |
| CCc1ccc(NC(=O)CSc2nc3cc(C(=O)OC)ccc3c(=O)n2Cc2ccco2)cc1 | inconclusive: 20.6 µM [activator, partial curve, poor fit] |
| CC(=O)c1sc(N/N=C\c2ccc(Br)cc2)nc1C | inconclusive: 6.51 µM [activator, partial curve] |
| CC/C(=C\C(=O)c1ccncc1)Nc1ccc(O)cc1 | inconclusive: 20.6 µM [inhibitor, single point] |
| CCOc1ccc(OCC)c(NC(=O)C2CCCN(S(=O)(=O)c3ccc(C)cc3)C2)c1 (stereo not given) | inconclusive: 7.3 µM [inhibitor, partial curve] |
| COc1cc(-c2nn3c(-c4ccco4)nnc3s2)cc(OC)c1OC | inactive |
| Cc1ccc(-n2[nH]c(C)c(C=Nc3ccc(S(=O)(=O)N4CCOCC4)cc3)c2=O)c(C)c1 | inactive |
| Cc1ccc(NC(=O)C2C3CCCCC32)cc1[N+](=O)[O-] (stereo not given) | inconclusive: 14.6 µM [activator, partial curve] |
| O=C(NC1CCN(C(=S)Nc2ccccc2)CC1)C1CCCCC1 | inactive |
| CCN1C=C(Cc2ccccc2C)C2=C(C1)C(c1ccccc1C)C(C#N)=C(N)O2 (stereo not given) | inconclusive: 29.1 µM [inhibitor, single point] |
| CCCCOc1cccc(-c2cc(C(=O)NNC(=S)NCC)c3ccccc3n2)c1 | inconclusive: 20.6 µM [activator, partial curve] |
| CC(=O)C(Sc1ccc2nnc(-c3ccncc3)n2n1)C(C)=O | inconclusive: 18.4 µM [inhibitor, partial curve] |
| O=C(Nc1ccc(Br)cn1)c1cccc(-c2cc3ccccc3oc2=O)c1 | inconclusive: 7.31 µM [activator, partial curve] |
| CCOc1ccccc1NC(=S)NCc1cccn1C | inactive |
| COC(=O)Nc1ccc(S(=O)(=O)N2CCCC(C(=O)N3CCCCCC3)C2)cc1 (stereo not given) | inconclusive: 29.1 µM [inhibitor, single point] |
| CC(NC(=O)c1ccccc1Br)c1nnc(SCC(=O)NC2CCCCC2)n1C (stereo not given) | inactive |
| CC1=CC(=C(C#N)c2nc3ccccc3s2)C=C(C)N1c1ccc(F)cc1 | inconclusive: 13 µM [activator, partial curve] |
| COc1cc2cc(C(=O)N/N=C/c3ccccc3Cl)[nH]c2cc1OC | inconclusive: 29.1 µM [inhibitor, single point] |
| Cc1nn(C2CCS(=O)(=O)C2)c(Cl)c1/C=C/C(=O)OCC(=O)c1cc(C)n(-c2ccc(F)cc2)c1C (stereo not given) | active: 13 µM |
| COc1ccccc1N1CCN(C(=O)CN(CCc2ccccc2)S(C)(=O)=O)CC1 | inconclusive: 0.731 µM [activator, partial curve, poor fit] |
| Cc1cccc(NC(=O)CN2CCC(C(=O)c3ccc4c(c3)OCCO4)CC2)c1 | inactive |
| COc1cc2ccccc2cc1C(=O)N(CCN(C)C)c1nc2ccc(C)cc2s1 | inconclusive: 29.1 µM [inhibitor, single point] |
